Article PMC12693483, “A screen for synthetic genetic interactions with the Saccharomyces cerevisiae hrq1ΔN allele”

Molecular target: T1, Hrq1 NTD del280-1077 (Saccharomyces cerevisiae) (UniProt Q05549)
T1 sequence (looked up): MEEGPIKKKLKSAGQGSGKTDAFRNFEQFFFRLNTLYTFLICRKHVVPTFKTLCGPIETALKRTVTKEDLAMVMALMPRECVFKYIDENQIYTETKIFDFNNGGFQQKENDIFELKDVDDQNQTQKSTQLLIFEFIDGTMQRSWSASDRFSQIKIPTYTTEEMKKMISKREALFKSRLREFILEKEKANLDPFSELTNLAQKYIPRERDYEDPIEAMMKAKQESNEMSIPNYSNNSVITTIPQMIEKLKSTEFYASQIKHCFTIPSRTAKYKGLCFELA
Assay: EMSA
Details: 10 nM protein, more binding than 10 nM Hrq1ΔN, weak ssDNA binding; EMSA: 0.1 nM labelled DNA, 25 mM Na-HEPES pH 8.0, 5% glycerol, 50 mM NaOAc pH 7.6, 7.5 mM MgOAc, 0.01% Tween-20, 30 min at 30 °C; recombinant protein; residues 1-279; label: 5'-32P; single-stranded DNA

## TTTTTTTTTTTTTTTTTTTTTTTTTTTTTT [poly(dT) 30mer]
  binding result: binds more weakly

A weaker result is weaker than the reference pair of the same experiment. Where a protein sequence is shown, tags need not be part of it.
